Data reported in US20030162221A1.
Results are given in words; binding and its absence hold for the method and conditions named. Binding seen in cells or lysates may run through a third protein. Some binding calls cover weakened binding; strength is not graded here. Tags and fused reporters may be left off the sequences shown.

Columns and labels:
[1] = target: T1, TFB3 (Saccharomyces cerevisiae) (UniProt Q03290); experiment: anti-FLAG co-IP, LC-MS/MS
T1 sequence (looked up): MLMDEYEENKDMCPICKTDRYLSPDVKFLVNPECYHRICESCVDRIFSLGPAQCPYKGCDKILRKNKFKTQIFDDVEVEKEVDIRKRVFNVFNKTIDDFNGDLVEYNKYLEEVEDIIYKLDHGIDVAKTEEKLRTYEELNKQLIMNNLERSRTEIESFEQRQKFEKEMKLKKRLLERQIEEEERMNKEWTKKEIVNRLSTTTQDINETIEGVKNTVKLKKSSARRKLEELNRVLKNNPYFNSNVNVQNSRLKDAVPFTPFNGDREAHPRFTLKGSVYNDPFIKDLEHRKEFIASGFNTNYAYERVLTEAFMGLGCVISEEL

[2] = target: T2, Ccl1 (Saccharomyces cerevisiae) (UniProt P37366); experiment: anti-FLAG co-IP, LC-MS/MS
T2 sequence (looked up): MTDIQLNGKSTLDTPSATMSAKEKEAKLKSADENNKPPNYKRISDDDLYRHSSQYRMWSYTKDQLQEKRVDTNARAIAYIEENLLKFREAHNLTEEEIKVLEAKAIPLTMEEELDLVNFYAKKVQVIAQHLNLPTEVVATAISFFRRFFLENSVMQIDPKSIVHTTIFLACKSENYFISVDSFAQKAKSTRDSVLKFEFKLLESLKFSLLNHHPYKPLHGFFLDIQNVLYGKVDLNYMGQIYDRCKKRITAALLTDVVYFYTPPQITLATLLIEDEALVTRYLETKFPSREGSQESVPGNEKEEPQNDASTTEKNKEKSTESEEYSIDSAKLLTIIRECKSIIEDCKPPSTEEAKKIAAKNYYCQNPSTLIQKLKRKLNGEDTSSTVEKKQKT

[3] = target: T3, Met18/Mms19 (Saccharomyces cerevisiae) (UniProt P40469); experiment: anti-FLAG co-IP, LC-MS/MS
T3 sequence (looked up): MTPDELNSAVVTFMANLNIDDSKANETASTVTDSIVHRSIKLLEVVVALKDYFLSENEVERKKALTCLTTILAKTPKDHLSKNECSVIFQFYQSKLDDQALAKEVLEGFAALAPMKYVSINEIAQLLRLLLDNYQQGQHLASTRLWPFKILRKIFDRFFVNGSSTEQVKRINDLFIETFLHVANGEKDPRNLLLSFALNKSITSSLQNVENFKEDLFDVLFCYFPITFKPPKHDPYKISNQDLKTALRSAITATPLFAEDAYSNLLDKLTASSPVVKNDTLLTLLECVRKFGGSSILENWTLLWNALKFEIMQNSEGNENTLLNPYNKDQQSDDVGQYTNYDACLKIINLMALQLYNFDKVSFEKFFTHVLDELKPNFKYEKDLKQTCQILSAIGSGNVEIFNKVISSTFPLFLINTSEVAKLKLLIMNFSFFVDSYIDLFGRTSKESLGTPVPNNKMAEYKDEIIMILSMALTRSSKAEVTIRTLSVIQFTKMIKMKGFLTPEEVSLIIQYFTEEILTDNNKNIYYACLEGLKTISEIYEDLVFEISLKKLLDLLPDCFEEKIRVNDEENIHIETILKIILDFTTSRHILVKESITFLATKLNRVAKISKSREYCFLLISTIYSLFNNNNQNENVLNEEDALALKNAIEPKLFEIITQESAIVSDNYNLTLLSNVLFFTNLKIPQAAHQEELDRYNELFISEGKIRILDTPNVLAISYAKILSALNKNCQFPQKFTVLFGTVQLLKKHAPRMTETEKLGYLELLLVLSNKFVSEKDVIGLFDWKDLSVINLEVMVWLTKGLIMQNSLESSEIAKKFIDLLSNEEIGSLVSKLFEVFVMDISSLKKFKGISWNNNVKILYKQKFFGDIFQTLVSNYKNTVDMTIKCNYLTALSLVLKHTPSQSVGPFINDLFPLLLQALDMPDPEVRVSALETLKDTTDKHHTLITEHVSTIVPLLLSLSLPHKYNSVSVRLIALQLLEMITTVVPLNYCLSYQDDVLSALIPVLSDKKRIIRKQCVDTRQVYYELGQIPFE

[4] = target: T4, Kin28 (Saccharomyces cerevisiae) (UniProt P06242); experiment: anti-FLAG co-IP, LC-MS/MS
T4 sequence (looked up): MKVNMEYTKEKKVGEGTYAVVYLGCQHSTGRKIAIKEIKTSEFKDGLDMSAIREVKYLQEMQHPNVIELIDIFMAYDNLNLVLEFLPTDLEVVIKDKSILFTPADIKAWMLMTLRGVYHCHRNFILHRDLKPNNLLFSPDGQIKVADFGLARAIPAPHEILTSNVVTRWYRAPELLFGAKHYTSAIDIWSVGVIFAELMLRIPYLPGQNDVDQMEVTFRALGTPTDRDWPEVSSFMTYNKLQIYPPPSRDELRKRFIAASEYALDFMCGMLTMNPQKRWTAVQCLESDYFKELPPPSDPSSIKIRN

[5] = target: T1, TFB3 (Saccharomyces cerevisiae); experiment: anti-FLAG co-IP, LC-MS/MS; pair by Table 2
[6] = target: T2, Ccl1 (Saccharomyces cerevisiae); experiment: anti-FLAG co-IP, LC-MS/MS; pair by Table 2
[7] = target: T4, Kin28 (Saccharomyces cerevisiae); experiment: anti-FLAG co-IP, LC-MS/MS; pair by Table 2

Measured: binding

B1: Rad3 (protein, Saccharomyces cerevisiae, UniProt P06839 1-778, looked up)
chain: MKFYIDDLPVLFPYPKIYPEQYNYMCDIKKTLDVGGNSILEMPSGTGKTVSLLSLTIAYQMHYPEHRKIIYCSRTMSEIEKALVELENLMDYRTKELGYQEDFRGLGLTSRKNLCLHPEVSKERKGTVVDEKCRRMTNGQAKRKLEEDPEANVELCEYHENLYNIEVEDYLPKGVFSFEKLLKYCEEKTLCPYFIVRRMISLCNIIIYSYHYLLDPKIAERVSNEVSKDSIVIFDEAHNIDNVCIESLSLDLTTDALRRATRGANALDERISEVRKVDSQKLQDEYEKLVQGLHSADILTDQEEPFVETPVLPQDLLTEAIPGNIRRAEHFVSFLKRLIEYLKTRMKVLHVISETPKSFLQHLKQLTFIERKPLRFCSERLSLLVRTLEVTEVEDFTALKDIATFATLISTYEEGFLLIIEPYEIENAAVPNPIMRFTCLDASIAIKPVFERFSSVIITSGTISPLDMYPRMLNFKTVLQKSYAMTLAKKSFLPMIITKGSDQVAISSRFEIRNDPSIVRNYGSMLVEFAKITPDGMVVFFPSYLYMESIVSMWQTMGILDEVWKHKLILVETPDAQETSLALETYRKACSNGRGAILLSVARGKVSEGIDFDHQYGRTVLMIGIPFQYTESRILKARLEFMRENYRIRENDFLSFDAMRHAAQCLGRVLRGKDDYGVMVLADRRFSRKRSQLPKWIAQGLSDADLNLSTDMAISNTKQFLRTMAQPTDPKDQEGVSVWSYEDLIKHQNSRKDQGGFIENENKEGEQDEDEDEDIEMQ
binds: all assays above
